This note sets out measurements from patent US20130142784A1 (The Board of Trustees of the University of Illinois, priority 2010, published 2013).

These are yes or no findings as the source states them, for the method shown. Some results given as binding are weak or reduced against the parent protein; the word gives no strength.

For the assay, the target named is T1, Rb1 in MDA-MB-453 cells (human (in the human cell line MDA-MB-453)) (UniProt P06400).
T1 sequence (looked up): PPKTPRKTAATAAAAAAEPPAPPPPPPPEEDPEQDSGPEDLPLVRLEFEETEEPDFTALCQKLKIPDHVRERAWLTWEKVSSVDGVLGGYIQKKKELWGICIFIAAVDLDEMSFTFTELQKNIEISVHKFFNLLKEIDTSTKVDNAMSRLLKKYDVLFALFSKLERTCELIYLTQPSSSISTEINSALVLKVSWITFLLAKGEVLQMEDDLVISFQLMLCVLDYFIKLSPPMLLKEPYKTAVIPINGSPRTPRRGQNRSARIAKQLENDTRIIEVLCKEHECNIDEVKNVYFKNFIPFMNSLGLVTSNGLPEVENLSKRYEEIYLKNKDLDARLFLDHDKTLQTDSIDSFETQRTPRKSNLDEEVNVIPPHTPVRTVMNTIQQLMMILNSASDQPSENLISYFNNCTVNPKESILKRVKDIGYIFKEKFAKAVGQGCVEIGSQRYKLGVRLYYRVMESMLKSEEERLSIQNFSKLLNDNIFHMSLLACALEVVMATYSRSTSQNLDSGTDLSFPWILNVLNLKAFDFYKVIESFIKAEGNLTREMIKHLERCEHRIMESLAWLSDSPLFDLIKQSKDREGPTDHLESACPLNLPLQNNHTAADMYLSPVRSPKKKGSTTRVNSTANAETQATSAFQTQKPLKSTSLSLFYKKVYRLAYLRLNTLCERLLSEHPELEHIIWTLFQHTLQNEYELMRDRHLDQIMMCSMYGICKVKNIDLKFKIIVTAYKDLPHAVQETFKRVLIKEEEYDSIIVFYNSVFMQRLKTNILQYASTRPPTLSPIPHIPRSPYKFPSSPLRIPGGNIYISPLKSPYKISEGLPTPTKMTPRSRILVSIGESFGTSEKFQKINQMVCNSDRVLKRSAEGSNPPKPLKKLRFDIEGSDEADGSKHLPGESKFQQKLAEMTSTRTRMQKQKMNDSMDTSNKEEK
Description: western blot of endogenous proteins in MDA-MB-453 cells.

B1: endogenous FoxM1 in MDA-MB-453 cells (protein, UniProt Q08050 1-763, looked up)
chain: MKTSPRRPLILKRRRLPLPVQNAPSETSEEEPKRSPAQQESNQAEASKEVAESNSCKFPAGIKIINHPTMPNTQVVAIPNNANIHSIITALTAKGKESGSSGPNKFILISCGGAPTQPPGLRPQTQTSYDAKRTEVTLETLGPKPAARDVNLPRPPGALCEQKRETCADGEAAGCTINNSLSNIQWLRKMSSDGLGSRSIKQEMEEKENCHLEQRQVKVEEPSRPSASWQNSVSERPPYSYMAMIQFAINSTERKRMTLKDIYTWIEDHFPYFKHIAKPGWKNSIRHNLSLHDMFVRETSANGKVSFWTIHPSANRYLTLDQVFKPLDPGSPQLPEHLESQQKRPNPELRRNMTIKTELPLGARRKMKPLLPRVSSYLVPIQFPVNQSLVLQPSVKVPLPLAASLMSSELARHSKRVRIAPKVLLAEEGIAPLSSAGPGKEEKLLFGEGFSPLLPVQTIKEEEIQPGEEMPHLARPIKVESPPLEEWPSPAPSFKEESSHSWEDSSQSPTPRPKKSYSGLRSPTRCVSEMLVIQHRERRERSRSRRKQHLLPPCVDEPELLFSEGPSTSRWAAELPFPADSSDPASQLSYSQEVGGPFKTPIKETLPISSTPSKSVLPRTPESWRLTPPAKVGGLDFSPVQTSQGASDPLPDPLGLMDLSTTPLQSAPPLESPQRLLSSEPLDLISVPFGNSSPSDIDVPKPGSPEPQVSGLAANRSLTEGLVLDTMNDSLSKILLDISFPGLDEDPLGPDNINWSQFIPELQ
Regarding B1, the binding result is reported as “binds”.
